# Patent publication US20170189504A1, “NOVEL PEPTIDES AND COMBINATION OF PEPTIDES FOR USE IN IMMUNOTHERAPY AGAINST VARIOUS CANCERS” (immatics biotechnologies GmbH, priority 2015, published 2017)
# Tests used:
# source genes (mRNA) [1] = experiment: Gene and exon expression of source genes, TCGA tumor samples compared with normal tissue samples (Lonsdale, 2013) (Table 17); set-up: species or system human
# source genes (mRNA) [2] = experiment: Expression profiling of source genes by in-house RNASeq of tumor and normal tissues (Table 18, FIG. 2); set-up: species or system human; key: very highly over-expressed in tumors compared to a panel of normal tissues (+++); highly over-expressed in tumors compared to a panel of normal tissues (++); over-expressed in tumors compared to a panel of normal tissues (+); conditions: source gene of peptide; for Expression score BRCA: BRCA tumors vs panel of normal tissues; for Expression score OSCAR: esophageal cancer incl. gastric-esophageal junction (N = 11) vs panel of normal tissues; for Expression score NHL: non-Hodgkin lymphoma (N = 10) vs panel of normal tissues; for Expression score NSCLC: non-small cell lung cancer (N = 11) vs panel of normal tissues; for Expression score OC: ovarian cancer (N = 12) vs panel of normal tissues; for Expression score SCLC: small cell lung cancer (N = 10) vs panel of normal tissues
# HLA-A*02 = experiment: Identification and relative LC-MS quantitation of HLA-A*02-presented tumor-associated peptides on tissue samples (presentation profiles, Tables 13A, 13B, 15, FIG. 1); set-up: species or system human; key to Presentation score NHL / Presentation score CLL / Presentation score BRCA / Presentation score AML / Presentation score GB / Presentation score NSCLC / Presentation score GBC_CCC / Presentation score UEC / Presentation score MEL / Presentation score OSCAR / Presentation score GC / Presentation score UBC / Presentation score OC / Presentation score RCC / Presentation score CRC / Presentation score PCA / Presentation score HCC / Presentation score PC / Presentation score SCLC: specifically presented on tumors (++++); very highly over-presented on tumors compared to a panel of normal tissues (+++); highly over-presented on tumors compared to a panel of normal tissues (++); over-presented on tumors compared to a panel of normal tissues (+); conditions: for Presentation score BRCA: breast cancer (N = 17) vs panel of normal tissues (N = 262); for Peptide Presentation on cancer entities: HLA-A*02-binding tumor-associated peptides
# [3] = Table 13A, cancer entities on which the peptide was found presented
# [4] = Table 13B, presentation on additional cancer entities
substance,measurement,setting,value
11: peptide found in RNF213 (gene looked up) (ALSPSYLTV; listed as Homo sapiens) [compound 11],"Target coverage: over-expression category of source gene, LAML","source genes (mRNA) [1]; Acute Myeloid Leukemia (N = 173), cutoff more than 2-fold above highest 75% percentile of normal tissue samples",A (>=50% of tumors above the cutoff)
same,"Target coverage: over-expression category of source gene, BLCA","source genes (mRNA) [1]; Bladder urothelial carcinoma (N = 408), cutoff more than 2-fold above highest 75% percentile of normal tissue samples","C (>=5% of tumors above the cutoff, but <20%)"
same,"Target coverage: over-expression category of source gene, BRCA","source genes (mRNA) [1]; Breast cancer (N = 1104), cutoff more than 2-fold above highest 75% percentile of high and medium risk normal tissue samples","B (>= 20% of tumors above the cutoff, but <50%)"
same,"Target coverage: over-expression category of source gene, KIRC","source genes (mRNA) [1]; Clear cell kidney carcinoma (N = 534), cutoff more than 2-fold above highest 75% percentile of normal tissue samples","C (>=5% of tumors above the cutoff, but <20%)"
same,"Target coverage: over-expression category of source gene, ESCA","source genes (mRNA) [1]; Esophageal cancer (N = 185), cutoff more than 2-fold above highest 75% percentile of normal tissue samples","B (>= 20% of tumors above the cutoff, but <50%)"
same,"Target coverage: over-expression category of source gene, LUAD","source genes (mRNA) [1]; Lung adenocarcinoma (N = 517), cutoff more than 2-fold above highest 75% percentile of normal tissue samples","C (>=5% of tumors above the cutoff, but <20%)"
same,"Target coverage: over-expression category of source gene, DLBC","source genes (mRNA) [1]; Lymphoid neoplasm diffuse large B-cell lymphoma (N = 48), cutoff more than 2-fold above highest 75% percentile of normal tissue samples","C (>=5% of tumors above the cutoff, but <20%)"
same,"Target coverage: over-expression category of source gene, OV","source genes (mRNA) [1]; Ovarian serous cystadenocarcinoma (N = 309), cutoff more than 2-fold above highest 75% percentile of normal tissue samples","B (>= 20% of tumors above the cutoff, but <50%)"
same,"Target coverage: over-expression category of source gene, KIRP","source genes (mRNA) [1]; Papillary kidney carcinoma (N = 291), cutoff more than 2-fold above highest 75% percentile of normal tissue samples","B (>= 20% of tumors above the cutoff, but <50%)"
same,"Target coverage: over-expression category of source gene, SKCM","source genes (mRNA) [1]; Skin cutaneous melanoma (N = 473), cutoff more than 2-fold above highest 75% percentile of normal tissue samples","C (>=5% of tumors above the cutoff, but <20%)"
same,"Target coverage: over-expression category of source gene, STAD","source genes (mRNA) [1]; Stomach adenocarcinoma (N = 415), cutoff more than 2-fold above highest 75% percentile of normal tissue samples","B (>= 20% of tumors above the cutoff, but <50%)"
same,"Target coverage: over-expression category of source gene, UCEC","source genes (mRNA) [1]; Uterine corpus endometrial carcinoma (N = 546), cutoff more than 2-fold above highest 75% percentile of normal tissue samples","C (>=5% of tumors above the cutoff, but <20%)"
same,Expression score BRCA,source genes (mRNA) [2],+
same,Expression score OSCAR,source genes (mRNA) [2],+
same,Expression score NHL,source genes (mRNA) [2],+
same,Expression score NSCLC,source genes (mRNA) [2],+
same,Expression score OC,source genes (mRNA) [2],++
same,Expression score PC,source genes (mRNA) [2]; pancreatic cancer (N = 26) vs panel of normal tissues,+
same,Expression score SCLC,source genes (mRNA) [2],+
same,Presentation score BRCA,HLA-A*02; HLA-A*02 peptides,+++
same,Presentation score CLL,"HLA-A*02; HLA-A*02 peptides, chronic lymphocytic leukemia (N = 17) vs panel of normal tissues (N = 262)",+++
same,Presentation score GBC_CCC,"HLA-A*02; HLA-A*02 peptides, gallbladder adenocarcinoma and cholangiocarcinoma (N = 6) vs panel of normal tissues (N = 262)",+++
same,Presentation score GC,"HLA-A*02; HLA-A*02 peptides, gastric cancer (N = 29) vs panel of normal tissues (N = 262)",+++
same,Presentation score NHL,"HLA-A*02; HLA-A*02 peptides, non-Hodgkin lymphoma (N = 18) vs panel of normal tissues (N = 262)",+++
same,Presentation score NSCLC,"HLA-A*02; HLA-A*02 peptides, non-small cell lung cancer (N = 90) vs panel of normal tissues (N = 262)",+++
same,Peptide Presentation on cancer entities,HLA-A*02; [3],"GC, NSCLC, CLL, BRCA, GBC_CCC, NHL"
same,Peptide Presentation on cancer entities,HLA-A*02; [4],HNSCC
247: peptide found in DPP3 (gene looked up) (ALYEGYATV; listed as Homo sapiens) [compound 247],"Over-expression category of source gene (target coverage), BLCA","source genes (mRNA) [1]; BLCA = Bladder urothelial carcinoma (N = 408), same cutoff",A (>=50% of tumors above the cutoff)
same,"Over-expression category of source gene (target coverage), BRCA","source genes (mRNA) [1]; BRCA = Breast cancer (N = 1104), tumors more than 2-fold above highest 75% percentile of normal tissues","B (>= 20% of tumors above the cutoff, but <50%)"
same,"Over-expression category of source gene (target coverage), CHOL","source genes (mRNA) [1]; CHOL = Cholangiocarcinoma (N = 36), same cutoff",A (>=50% of tumors above the cutoff)
same,"Over-expression category of source gene (target coverage), COAD","source genes (mRNA) [1]; COAD = Colon and rectal adenocarcinoma (N = 462), same cutoff",A (>=50% of tumors above the cutoff)
same,"Over-expression category of source gene (target coverage), DLBC","source genes (mRNA) [1]; DLBC = Lymphoid neoplasm diffuse large B-cell lymphoma (N = 48), same cutoff",A (>=50% of tumors above the cutoff)
same,"Over-expression category of source gene (target coverage), ESCA","source genes (mRNA) [1]; ESCA = Esophageal cancer (N = 185), same cutoff",A (>=50% of tumors above the cutoff)
same,"Over-expression category of source gene (target coverage), GBM","source genes (mRNA) [1]; GBM = Glioblastoma multiforme (N = 169), same cutoff","C (>=5% of tumors above the cutoff, but <20%)"
same,"Over-expression category of source gene (target coverage), KICH","source genes (mRNA) [1]; KICH = Kidney chromophobe (N = 66), same cutoff","C (>=5% of tumors above the cutoff, but <20%)"
same,"Over-expression category of source gene (target coverage), KIRP","source genes (mRNA) [1]; KIRP = Papillary kidney carcinoma (N = 291), same cutoff","B (>= 20% of tumors above the cutoff, but <50%)"
same,"Over-expression category of source gene (target coverage), LAML","source genes (mRNA) [1]; LAML = Acute Myeloid Leukemia (N = 173), same cutoff","C (>=5% of tumors above the cutoff, but <20%)"
same,"Over-expression category of source gene (target coverage), LIHC","source genes (mRNA) [1]; LIHC = Liver hepatocellular carcinoma (N = 374), same cutoff","C (>=5% of tumors above the cutoff, but <20%)"
same,"Over-expression category of source gene (target coverage), LUAD","source genes (mRNA) [1]; LUAD = Lung adenocarcinoma (N = 517), same cutoff","B (>= 20% of tumors above the cutoff, but <50%)"
same,"Over-expression category of source gene (target coverage), LUSC","source genes (mRNA) [1]; LUSC = Lung squamous cell carcinoma (N = 503), same cutoff",A (>=50% of tumors above the cutoff)
same,"Over-expression category of source gene (target coverage), OV","source genes (mRNA) [1]; OV = Ovarian serous cystadenocarcinoma (N = 309), same cutoff",A (>=50% of tumors above the cutoff)
same,"Over-expression category of source gene (target coverage), PAAD","source genes (mRNA) [1]; PAAD = Pancreatic ductal adenocarcinoma (N = 179), same cutoff","B (>= 20% of tumors above the cutoff, but <50%)"
same,"Over-expression category of source gene (target coverage), PRAD","source genes (mRNA) [1]; PRAD = Prostate adenocarcinoma (N = 498), same cutoff","B (>= 20% of tumors above the cutoff, but <50%)"
same,"Over-expression category of source gene (target coverage), READ","source genes (mRNA) [1]; READ = Colon and rectal adenocarcinoma (N = 167), same cutoff",A (>=50% of tumors above the cutoff)
same,"Over-expression category of source gene (target coverage), SKCM","source genes (mRNA) [1]; SKCM = Skin cutaneous melanoma (N = 473), same cutoff","B (>= 20% of tumors above the cutoff, but <50%)"
same,"Over-expression category of source gene (target coverage), STAD","source genes (mRNA) [1]; STAD = Stomach adenocarcinoma (N = 415), same cutoff",A (>=50% of tumors above the cutoff)
same,"Over-expression category of source gene (target coverage), UCEC","source genes (mRNA) [1]; UCEC = Uterine corpus endometrial carcinoma (N = 546), same cutoff",A (>=50% of tumors above the cutoff)
same,Expression score BRCA,source genes (mRNA) [2],+
same,Expression score AML,source genes (mRNA) [2]; acute myeloid leukemia (N = 11) vs panel of normal tissues,+
same,Expression score OSCAR,source genes (mRNA) [2],++
same,Expression score GC,source genes (mRNA) [2]; gastric cancer (N = 11) vs panel of normal tissues,+
same,Expression score NHL,source genes (mRNA) [2],+
same,Expression score NSCLC,source genes (mRNA) [2],+
same,Expression score OC,source genes (mRNA) [2],+
same,Expression score SCLC,source genes (mRNA) [2],+
same,Expression score UBC,source genes (mRNA) [2]; urinary bladder cancer (N = 10) vs panel of normal tissues,+
same,Expression score UEC,source genes (mRNA) [2]; uterine cancer (N = 10) vs panel of normal tissues,+
same,Presentation score BRCA,HLA-A*02; HLA-A*02 peptides,++
same,Presentation score OSCAR,"HLA-A*02; HLA-A*02 peptides, esophageal cancer, including cancer of the gastric-esophageal junction (N = 17) vs panel of normal tissues (N = 262)",+
same,Presentation score SCLC,"HLA-A*02; HLA-A*02 peptides, small cell lung cancer (N = 19) vs panel of normal tissues (N = 262)",+
same,Presentation score UBC,"HLA-A*02; HLA-A*02 peptides, urinary bladder cancer (N = 16) vs panel of normal tissues (N = 262)",+++
same,Peptide Presentation on cancer entities,HLA-A*02; [3],"NSCLC, HCC, CLL, OSCAR, OC, SCLC, UBC, UEC, BRCA, GBC_CCC, MEL, RCC, CRC, PC, NHL"
same,Peptide Presentation on cancer entities,HLA-A*02; [4],"AML, HNSCC"

# For part of these data: For expression read-outs the peptide stands for its source gene, whose mRNA was measured; the gene is not named for every peptide.
